Measured values from patent US20140024132A1, “METHODS AND SYSTEMS USING INTEGRATED METABOLOMICS AND PHARMACOKINETICS FOR MULTI-COMPONENT DRUG EVALUATION” (priority 2010, published 2014).

System: endogenous urinary metabolite profiles
Test: Altered endogenous urinary metabolites after a single Pu-erh tea intake, UPLC-QTOFMS and GC-TOFMS profiling
Type: in vivo
Details: human urine
Procedure: Participants received a dose equivalent to 5 cups of commercially prepared tea. Twenty healthy men (n=10) and women (n=10) whose mean age was 25±2 years (range 22-32) were enrolled in this study, and written consent was obtained from each participant.
Volunteers were provided with identical standard meals three times per day during the experiment (e.g., breakfast: milk and bread; lunch: beef and vegetables; dinner: pork and cabbage). […] Urine samples were stored at −80° C. before analysis.
The tea infusion used in this study and the collected urine samples were centrifuged at 13,000 rpm for 10 min at 4° C., and the resulting supernatants were immediately stored at −80° C. pending UPLC-QTOFMS analysis. Ultrapure water (500 μL) was added to the tea or urine sample (500 μL) and vortexed for 1 min. The sample was then filtered through a syringe filter (0.22 μm) for UPLC-QTOFMS analysis.; incorporated by reference herein in its entirety.
The tea infusion (100 μL) described in Example 2 and urine samples (100 μL) were spiked with two internal standard solutions (10 μL-2-chlorophenylalanine in water, 0.3 mg/ml; 10 μL heptadecanoic acid in methanol, 1 mg/mL), and vortexed for 10 seconds. The mixed solution was extracted with 300 μL of methanol:chloroform (v/v 3:1) and vortexed for 30 seconds. After storing for 10 min at −20° C., the samples were centrifuged at 10,000 rpm for 10 min. An aliquot of the 300 μL supernatant was transferred to a glass sampling vial to vacuum dry at room temperature. The residue was derivatized using a two-step procedure. First, 80 μL methoxyamine (15 mg/mL in pyridine,) was added to the vial and kept at 30° C. for 90 min followed by 80 μL BSTFA (1% TMCS) at 70° C. for 60 min. See protocols set forth in Ni et al., FEBS Lett. 581: 707-711 (2007).; incorporated by reference herein in its entirety.
UPLC: Tea and urine metabolite profiling were performed using a Waters ACQUITY UPLC system equipped with a binary solvent delivery manager and a sample manager (Waters Corporation, Milford, Mass., USA), coupled to a Micromass Q-TOF Premier mass spectrometry equipped with an electrospray interface (Waters Corporation, Milford, M A, USA). Chromatographic separations were performed on a 2.1×100 mm 1.7 μm ACQUITY BEH C18 chromatography column. The column was maintained at 45° C. and eluted with a 1-99% acetonitrile (0.1% (v/v) formic acid)-aqueous formic acid (0.1% (v/v) formic acid) gradient over 10 min at a flow rate of 0.40 mL/min. A 5 μL aliquot sample was injected onto the column.
Mass Spectrometry: The mass accuracy analysis and detailed MS parameters were optimized according to our prior studies, which is incorporated herein in its entirety. During metabolite profiling experiments, centroid data was acquired for each sample from 50 to 1000 Da with a 0.10 sec scan time and a 0.01 sec interscan delay over a 10 min analysis time. A metabonomics MS System Test Mixture including acetaminophen, tolbutamide, 3′-azido-3′-deoxythymidine, reserpine, verapamil and coumarin was used as chromatographic reference and mass accuracy quality control. This test mixture was injected every ten injections. The mass spectrometer was operated in positive ion mode. The desolvation temperature was set to 400° C. at a flow rate of 700 L/hr and source temperature of 100° C. The capillary and cone voltages were set to 3500 and 45 V, respectively. The data was collected between 50-1000 m/z with alternating collision energy, at 5 eV for precursor ion information generation and a collision profile from 10-40 eV for fragment ion information. The Q-TOF Premier™ was operated in v mode with 10,000 mass resolving power. Data were centroided during acquisition using independent reference lock-mass ions via the LockSpray™ interface to ensure mass accuracy and reproducibility. Leucine-enkephalin was used as the reference compound at a concentration of 50 pg/μL and an infusion flow rate of 0.05 mL/min.

NCCC[C@H](N)C(=O)O [Ornithine]
FC (fold change) (1 h after Pu-erh tea intake vs pre-dose): 0.51 | FC (fold change) (3 h after Pu-erh tea intake vs pre-dose): 0.33 | FC (fold change) (6 h after Pu-erh tea intake vs pre-dose): 1.36 | FC (fold change) (9 h after Pu-erh tea intake vs pre-dose): 4.29 | FC (fold change) (12 h after Pu-erh tea intake vs pre-dose): 5.10 | FC (fold change) (24 h after Pu-erh tea intake vs pre-dose): 2.90
